Measured data: PubChem BioAssay AID743121 (NCATS, 2013)
The whole screen tested about 26,000 reagents; shown is a random part of them. 167 of all reagents (0.63%) count as active. 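Calls are per gene from RSA p-values that are not deposited; an individual active-marked siRNA can sensitise only weakly.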 Entries without a mark were called inactive. The numbers tell different reagents against one gene apart. Reagent sequences are not shown.

Assay: 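Genes whose silencing strengthens cell killing by camptothecin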 (primary screen)
Cells: MDA-MB-231 cells, a human breast cancer line
Knock-down reagent: single siRNA against human genes, 20 nM siRNA (0.8 pmol per well)
Timing: 120 h (drug added 48 h after transfection, read 72 h later)
Challenge: camptothecin 20 nM (about EC30) for 72 h; vehicle 0.1% DMSO in parallel plates
Read-out: 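Cell viability by ATP luminescence (CellTiter-Glo) as % of non-targeting siRNA wells, and the log2 ratio of viability without drug over viability with camptothecin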
Reading the numbers: log2 vehicle/camptothecin viability: higher = stronger sensitisation to camptothecin; viability with camptothecin and viability without drug: higher = more viable cells
Rule for the call: 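Each gene scored by redundant siRNA activity (RSA) over its individual siRNA ratios; a gene is called active at p < 0.001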

no.	gene	reagent no.	log2 vehicle/camptothecin viability	viability with camptothecin (% of control)	viability without drug (% of control)
1	IMPA1 (GeneID 3612)	1	-0.494	71.8	50.9
2	IMPA1 (GeneID 3612)	2	-0.0681	66.5	63.4
3	IMPA1 (GeneID 3612)	3	-0.0427	103	100
4	IMPA1 (GeneID 3612)	4	0.351	50.2	64.1
5	NAA15 (GeneID 80155)	1	0.498	58.5	82.6
6	NAA15 (GeneID 80155)	2	-0.244	77.5	65.4
7	NAA15 (GeneID 80155)	3	-0.466	102	74.1
8	NAA15 (GeneID 80155)	4	-0.152	79.1	71.2
9	NRG2 (GeneID 9542)	1	0.0835	57.9	61.3
10	NRG2 (GeneID 9542)	2	1.13	34.5	75.4
11	NRG2 (GeneID 9542)	3	-0.578	104	69.8
12	UBD (GeneID 10537)	1	-0.154	110	99.2
13	UBD (GeneID 10537)	2	-0.141	94.9	86
14	UBD (GeneID 10537)	3	-0.00735	85	84.6
15	UBD (GeneID 10537)	4	-0.36	93	72.5
16	PAK3 (GeneID 5063)	1	0.308	59.9	74.2
17	PAK3 (GeneID 5063)	2	-0.571	108	72.8
18	PAK3 (GeneID 5063)	3	0.147	87.6	97
19	PAK3 (GeneID 5063)	4	-0.123	57	52.3
20	TARS1 (GeneID 6897)	1	-0.715	33.5	20.4
21	TARS1 (GeneID 6897)	2	-0.272	78.2	64.8
22	TARS1 (GeneID 6897)	3	-0.321	103	82.1
23	TARS1 (GeneID 6897)	4	-0.322	97	77.6
24	RNF135 (GeneID 84282)	1	-0.381	71.2	54.7
25	RNF135 (GeneID 84282)	2	-0.286	69.1	56.7
26	RNF135 (GeneID 84282)	3	-0.105	80.5	74.8
27	TNFSF14 (GeneID 8740)	1	-0.107	31	28.8
28	TNFSF14 (GeneID 8740)	2	-0.446	83.2	61.1
29	TNFSF14 (GeneID 8740)	3	-0.19	90.5	79.3
30	TNFSF14 (GeneID 8740)	4	-0.381	124	95.2
31	COG8 (GeneID 84342)	1	-0.258	74.1	62
32	COG8 (GeneID 84342)	2	-0.0575	73.6	70.7
33	COG8 (GeneID 84342)	3	0.0356	43.2	44.3
34	COG8 (GeneID 84342)	4	0.311	30.7	38.1
35	RAB13 (GeneID 5872)	1	-0.00974	99	98.3
36	RAB13 (GeneID 5872)	2	-0.243	106	89.9
37	RAB13 (GeneID 5872)	3	0.1	85.8	91.9
38	RAB13 (GeneID 5872)	4	0.00644	36.6	36.8
39	GDF3 (GeneID 9573)	1	-0.445	15	11
40	GDF3 (GeneID 9573)	2	-0.572	96.2	64.7
41	GDF3 (GeneID 9573)	3	0.0883	87.1	92.6
42	STK17B (GeneID 9262)	1	-0.343	71.8	56.6
43	STK17B (GeneID 9262)	2	0.062	87.1	91
44	STK17B (GeneID 9262)	3	-0.309	98.5	79.6
45	MAP3K20 (GeneID 51776)	1	-0.314	130	104
46	MAP3K20 (GeneID 51776)	2	-0.0645	66.8	63.9
47	MAP3K20 (GeneID 51776)	3	0.472	87.4	121
48	MAP3K20 (GeneID 51776)	4	-0.228	101	86.6
49	PNLIPRP1 (GeneID 5407)	1	-0.362	96.6	75.2
50	PNLIPRP1 (GeneID 5407)	2	0.168	86.4	97
51	PNLIPRP1 (GeneID 5407)	3	-0.0237	42.9	42.2
52	PNLIPRP1 (GeneID 5407)	4	1.49	24.9	70
53	MAP1A (GeneID 4130)	1	-0.659	61.2	38.7
54	MAP1A (GeneID 4130)	2	-0.49	123	87.3
55	MAP1A (GeneID 4130)	3	-0.262	72.3	60.3
56	INTS5 (GeneID 80789)	1	-0.557	93.3	63.4
57	INTS5 (GeneID 80789)	2	-0.0028	86.5	86.4
58	INTS5 (GeneID 80789)	3	-0.402	64.2	48.5
59	INTS5 (GeneID 80789)	4	-0.309	40.8	32.9
60	ATG5 (GeneID 9474)	1	0.361	41.9	53.9
61	ATG5 (GeneID 9474)	2	-0.636	26.2	16.9
62	ATG5 (GeneID 9474)	3	-0.215	60.9	52.5
63	ATG5 (GeneID 9474)	4	0.0495	96.1	99.4
64	OGFRL1 (GeneID 79627)	1	-0.0324	79.2	77.5
65	OGFRL1 (GeneID 79627)	2	0.325	52.3	65.5
66	OGFRL1 (GeneID 79627)	3	-0.147	91.5	82.6
67	OGFRL1 (GeneID 79627)	4	-0.42	86.8	64.8
68	CIT (GeneID 11113)	1	-0.264	103	86.2
69	CIT (GeneID 11113)	2	-0.309	117	94
70	CIT (GeneID 11113)	3	-0.0269	78.2	76.8
71	CIT (GeneID 11113)	4	0.00509	55.5	55.6

5 entries from above in another layout.
gene	reagent no.	log2 vehicle/camptothecin viability	viability with camptothecin (% of control)	viability without drug (% of control)
NAA15 (GeneID 80155)	1	0.498	58.5	82.6
NAA15 (GeneID 80155)	2	-0.244	77.5	65.4
NAA15 (GeneID 80155)	3	-0.466	102	74.1
NAA15 (GeneID 80155)	4	-0.152	79.1	71.2
NRG2 (GeneID 9542)	1	0.0835	57.9	61.3
